Test results published in PMC6611741.
Results are given in words; binding and its absence hold for the method and conditions named.

Amino acid sequences for entries named in this document (tags omitted). Residues count along the entry.
UniProt P02769, residues 25-607: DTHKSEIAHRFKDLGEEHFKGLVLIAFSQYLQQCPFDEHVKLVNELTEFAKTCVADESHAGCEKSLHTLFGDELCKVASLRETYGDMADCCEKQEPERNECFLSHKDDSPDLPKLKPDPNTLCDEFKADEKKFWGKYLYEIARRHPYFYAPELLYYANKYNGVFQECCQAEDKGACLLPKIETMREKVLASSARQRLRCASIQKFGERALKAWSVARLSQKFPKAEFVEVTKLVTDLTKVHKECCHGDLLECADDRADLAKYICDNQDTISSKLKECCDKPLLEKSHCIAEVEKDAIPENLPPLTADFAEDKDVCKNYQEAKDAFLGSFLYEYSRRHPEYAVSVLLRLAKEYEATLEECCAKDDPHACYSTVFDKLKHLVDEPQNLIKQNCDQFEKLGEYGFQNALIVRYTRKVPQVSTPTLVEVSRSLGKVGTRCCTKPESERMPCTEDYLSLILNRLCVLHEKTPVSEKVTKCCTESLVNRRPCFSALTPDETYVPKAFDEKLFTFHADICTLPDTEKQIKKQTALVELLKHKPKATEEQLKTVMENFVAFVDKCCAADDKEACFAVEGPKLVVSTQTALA

What was measured:
[1] = molecular target: Bovine serum albumin (bovine) (UniProt P02769); assay: electrolyte-gated organic thin-film transistor (SiMoT) response; BSA-functionalized gold gate incubated 10 min in 100 μl of PBS standard solutions of CRP, nominal 6 zM to 6 10^14 zM; PBS pH 7.4, ionic strength 162 mM; RT 20–22 °C; washed, then transfer curves measured; three gates; both purified
[2] = molecular target: Bovine serum albumin (bovine) (UniProt P02769); assay: electrolyte-gated organic thin-film transistor (SiMoT) response; BSA-functionalized gold gate incubated 10 min in human saliva progressively diluted in PBS (up to 1:10^15), from the more diluted to the more concentrated; endogenous CRP; only the target purified

B1: Human C-reactive protein (protein, UniProt P02741 19-224)
chain: QTDMSRKAFVFPKESDTSYVSLKAPLTKPLKAFTVCLHFYTELSSTRGYSIFSYATKRQDNEILIFWSKDIGYSFTVGGSEILFEVPEVTVAPVHICTSWESASGIVEFWVDGKPRVRKSLKKGYTVGAEASIILGQEQDSFGGNFEGSQSLVGDIGNVNMWDFVLSPDEINTIYLGGPFSPNVLNWRALKYEVQGEVFTKPQLWP
[1]
  binding: no binding (tested: 6 10^14 zM (600 pM))
[2]
  binding: no binding
